# ± gives the standard deviation of the averaged measurements. The list shows a part of the results. Only hits are listed; about a third recur on repeated control peptides.
# The chains behind the UniProt entries cited, without tags or fusion partners.
# EIF4G3, O43432, UniProt O43432, whole entry: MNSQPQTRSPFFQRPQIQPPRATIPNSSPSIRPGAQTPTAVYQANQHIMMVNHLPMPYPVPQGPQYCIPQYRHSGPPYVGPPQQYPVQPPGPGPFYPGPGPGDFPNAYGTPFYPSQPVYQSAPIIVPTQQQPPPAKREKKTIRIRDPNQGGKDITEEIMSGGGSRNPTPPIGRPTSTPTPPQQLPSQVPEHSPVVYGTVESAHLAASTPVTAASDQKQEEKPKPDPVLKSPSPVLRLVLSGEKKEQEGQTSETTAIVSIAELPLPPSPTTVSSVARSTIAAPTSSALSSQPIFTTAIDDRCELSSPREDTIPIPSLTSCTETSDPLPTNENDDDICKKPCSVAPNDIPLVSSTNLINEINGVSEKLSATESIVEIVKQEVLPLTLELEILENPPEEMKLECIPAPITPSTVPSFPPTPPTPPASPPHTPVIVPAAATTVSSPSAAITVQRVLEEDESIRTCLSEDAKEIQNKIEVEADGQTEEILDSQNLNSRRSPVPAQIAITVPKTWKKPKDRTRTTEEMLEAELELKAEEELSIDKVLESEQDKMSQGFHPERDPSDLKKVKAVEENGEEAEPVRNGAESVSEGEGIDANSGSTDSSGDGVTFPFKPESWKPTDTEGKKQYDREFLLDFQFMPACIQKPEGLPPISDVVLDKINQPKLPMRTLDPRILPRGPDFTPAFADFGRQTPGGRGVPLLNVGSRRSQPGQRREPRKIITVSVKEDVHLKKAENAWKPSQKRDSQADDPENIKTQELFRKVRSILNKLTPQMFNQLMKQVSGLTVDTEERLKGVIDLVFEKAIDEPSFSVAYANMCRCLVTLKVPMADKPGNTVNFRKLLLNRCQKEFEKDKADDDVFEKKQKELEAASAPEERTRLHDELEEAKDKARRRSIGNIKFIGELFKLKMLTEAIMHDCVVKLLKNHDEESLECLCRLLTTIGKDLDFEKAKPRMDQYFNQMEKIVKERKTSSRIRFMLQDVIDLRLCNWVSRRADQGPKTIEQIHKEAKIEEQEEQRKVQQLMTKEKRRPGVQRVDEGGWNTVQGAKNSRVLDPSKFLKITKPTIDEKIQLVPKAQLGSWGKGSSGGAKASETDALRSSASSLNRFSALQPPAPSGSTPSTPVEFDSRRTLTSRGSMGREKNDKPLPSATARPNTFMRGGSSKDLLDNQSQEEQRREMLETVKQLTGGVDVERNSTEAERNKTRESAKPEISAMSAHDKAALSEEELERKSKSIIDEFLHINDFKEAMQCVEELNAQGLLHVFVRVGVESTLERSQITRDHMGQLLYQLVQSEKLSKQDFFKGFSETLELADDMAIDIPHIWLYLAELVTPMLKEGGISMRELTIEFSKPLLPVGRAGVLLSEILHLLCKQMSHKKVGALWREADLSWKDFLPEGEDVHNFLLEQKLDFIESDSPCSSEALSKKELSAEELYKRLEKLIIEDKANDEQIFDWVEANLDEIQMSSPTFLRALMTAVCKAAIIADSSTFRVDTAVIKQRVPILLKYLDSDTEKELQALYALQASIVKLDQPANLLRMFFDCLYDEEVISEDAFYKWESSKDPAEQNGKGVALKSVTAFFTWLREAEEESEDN
# What was measured:
# Test in all cases: PRISMA enrichment of interactor (LFQ) in peptide spot vs all other peptide spots (log2 fold change); higher = stronger / more specific binding of the interactor to the peptide
# [1] = biological target: AIMP2, Q13155
# Protocol: (§1)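 PRISMA: 15-aa overlapping tiles (offset 8 aa) of 60 microproteins, plus SOS1/GLUT1 control peptides, were spot-synthesized on cellulose membranes in triplicate. Membranes were incubated with benzonase-treated HEK293T lysate, and bound proteins were identified by LC-MS/MS with LFQ. Enrichment is the log2 fold change of each protein in one spot versus all other spots. Only interactors passing the significance cutoff are listed.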
# [2] = biological target: ANP32A, P39687
# Protocol: as §1
# [3] = biological target: C7orf50, Q9BRJ6
# Protocol: as §1
# [4] = biological target: CALU, O43852
# Protocol: as §1
# [5] = biological target: CDKN2AIP, Q9NXV6
# Protocol: as §1
# [6] = biological target: DCTN1, Q14203
# Protocol: as §1
# [7] = biological target: DTYMK, P23919
# Protocol: as §1
# [8] = biological target: EIF3K, Q9UBQ5
# Protocol: as §1
# [9] = biological target: EIF4G3, O43432
# Protocol: as §1
# [10] = biological target: ERLIN1, O75477
# Protocol: as §1
# [11] = biological target: HIST1H1E, P10412
# Protocol: as §1
# [12] = biological target: IGLC3, P0DOY3
# Protocol: as §1
# [13] = biological target: KHDRBS1, Q07666
# Protocol: as §1
# [14] = biological target: LRPAP1, P30533
# Protocol: as §1
# [15] = biological target: MED12, Q93074
# Protocol: as §1
# [16] = biological target: MRPL46, Q9H2W6
# Protocol: as §1
# [17] = biological target: NAA35, Q5VZE5
# Protocol: as §1
# [18] = biological target: NOC4L, Q9BVI4
# Protocol: as §1
# [19] = biological target: PACSIN2, Q9UNF0
# Protocol: as §1
# [20] = substrate: PC, P11498
# Protocol: as §1
# [21] = biological target: PI4KA, P42356
# Protocol: as §1
# [22] = biological target: PJA2, O43164
# Protocol: as §1
# [23] = biological target: RBM3, P98179
# Protocol: as §1
# [24] = biological target: RPP38, P78345
# Protocol: as §1
# [25] = biological target: SEPTIN7, Q16181
# Protocol: as §1
# [26] = biological target: SET, Q01105
# Protocol: as §1
# [27] = biological target: SRSF1, Q07955
# Protocol: as §1
# [28] = biological target: SRSF2, Q01130
# Protocol: as §1
# [29] = biological target: STT3A, P46977
# Protocol: as §1
# [30] = biological target: TOMM34, Q15785
# Protocol: as §1
# [31] = biological target: UTP20, O75691
# Protocol: as §1
# [32] = biological target: AK6, Q9Y3D8
# Protocol: as §1
# [33] = biological target: ANP32B, Q92688
# Protocol: as §1
# [34] = biological target: BAZ1A, Q9NRL2
# Protocol: as §1
# [35] = biological target: C1QBP, Q07021
# Protocol: as §1
# [36] = biological target: FAM133B, Q5BKY9
# Protocol: as §1
# [37] = biological target: FN1, P02751
# Protocol: as §1
# [38] = biological target: HMMR, O75330
# Protocol: as §1
# [39] = biological target: MCM5, P33992
# Protocol: as §1
# [40] = biological target: NAP1L1, P55209
# Protocol: as §1
# [41] = substrate: NSF, P46459
# Protocol: as §1
# [42] = biological target: PDIA4, P13667
# Protocol: as §1
# [43] = biological target: PDS5B, Q9NTI5
# Protocol: as §1
# [44] = biological target: PTGES3, Q15185
# Protocol: as §1
# [45] = biological target: REXO4, Q9GZR2
# Protocol: as §1
# [46] = biological target: RPGRIP1L, Q68CZ1
# Protocol: as §1
# [47] = biological target: RPLP1, P05386
# Protocol: as §1
# [48] = biological target: TK1, P04183
# Protocol: as §1
# [49] = biological target: TNPO3, Q9Y5L0
# Protocol: as §1
# [50] = biological target: ZFP62, Q8NB50
# Protocol: as §1
binder,measurement,setting,value
AHRSTARTPAPCGTR [SLCO5A1],PRISMA enrichment of interactor (log2),[1],5.1
same,PRISMA enrichment of interactor (log2),[2],7.14
same,PRISMA enrichment of interactor (log2),[3],13
same,PRISMA enrichment of interactor (log2),[4],4.68
same,PRISMA enrichment of interactor (log2),[5],7.28
same,PRISMA enrichment of interactor (log2),[6],5.63
same,PRISMA enrichment of interactor (log2),[7],5.74
same,PRISMA enrichment of interactor (log2),[8],4.21
same,PRISMA enrichment of interactor (log2),[9],4.43
same,PRISMA enrichment of interactor (log2),[10],6
same,PRISMA enrichment of interactor (log2),[11],5.75
same,PRISMA enrichment of interactor (log2),[12],4.39
same,PRISMA enrichment of interactor (log2),[13],5.6
same,PRISMA enrichment of interactor (log2),[14],4.45
same,PRISMA enrichment of interactor (log2),[15],4.4
same,PRISMA enrichment of interactor (log2),[16],5.97
same,PRISMA enrichment of interactor (log2),[17],4.45
same,PRISMA enrichment of interactor (log2),[18],4.41
same,PRISMA enrichment of interactor (log2),[19],4.34
same,PRISMA enrichment of interactor (log2),[20],6.34
same,PRISMA enrichment of interactor (log2),[21],5.56
same,PRISMA enrichment of interactor (log2),[22],4.87
same,PRISMA enrichment of interactor (log2),[23],5.92
same,PRISMA enrichment of interactor (log2),[24],4.5
same,PRISMA enrichment of interactor (log2),[25],4.15
same,PRISMA enrichment of interactor (log2),[26],5.11
same,PRISMA enrichment of interactor (log2),[27],5.63
same,PRISMA enrichment of interactor (log2),[28],5.01
same,PRISMA enrichment of interactor (log2),[29],7.76
same,PRISMA enrichment of interactor (log2),[30],4.73
same,PRISMA enrichment of interactor (log2),[31],6.88
TAPPPAAAHGTRARR [THAP7],PRISMA enrichment of interactor (log2),[32],4.75
same,PRISMA enrichment of interactor (log2),[33],6.08
same,PRISMA enrichment of interactor (log2),[34],8.92
same,PRISMA enrichment of interactor (log2),[35],6.5
same,PRISMA enrichment of interactor (log2),[36],11.5
same,PRISMA enrichment of interactor (log2),[37],4.53
same,PRISMA enrichment of interactor (log2),[38],6.1
same,PRISMA enrichment of interactor (log2),[12],9.67
same,PRISMA enrichment of interactor (log2),[39],5.54
same,PRISMA enrichment of interactor (log2),[40],5.28 ± 0.45
same,PRISMA enrichment of interactor (log2),[41],7.42
same,PRISMA enrichment of interactor (log2),[42],6.12
same,PRISMA enrichment of interactor (log2),[43],4.22
same,PRISMA enrichment of interactor (log2),[44],4.62
same,PRISMA enrichment of interactor (log2),[45],6.08
same,PRISMA enrichment of interactor (log2),[46],4.61
same,PRISMA enrichment of interactor (log2),[47],5.91
same,PRISMA enrichment of interactor (log2),[48],4.19
same,PRISMA enrichment of interactor (log2),[49],5.17
same,PRISMA enrichment of interactor (log2),[50],7.03

# Not a retest: an excerpt of the list.
binder,measurement,setting,value
TAPPPAAAHGTRARR [THAP7],PRISMA enrichment of interactor (log2),[43],4.22
same,PRISMA enrichment of interactor (log2),[44],4.62
same,PRISMA enrichment of interactor (log2),[45],6.08
